# Results: PubChem BioAssay AID758 (NMMLSC, 2007)
# The whole screen tested about 190,000 compounds, of which about 110 (0.058%) were called active. The shares of active, inactive and inconclusive entries below differ from those in the screen.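 The calls were made as follows: active = fluorescent GTP binding to Rab7 beads changed by at least 20 points from the 100% baseline, either direction, mostly lower; inconclusive = compound itself probably fluorescent, or too few beads counted; inactive = the rest.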
# System: Rab7 GTPase wild type (dog), Bodipy-FL-GTP binding
# Test: modulators of GTP binding to Rab7, primary screen, biochemical, wildtype, multiplex bead flow cytometry (AID 758);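 also: median green fluorescence of bound Bodipy-FL-GTP per Rab7 bead population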
# Settings: GST-Rab7 beads, fluorescent GTP binding, at 10 µM, actives lie on both sides, untreated = 100%, excess cold GTP = 0%
row,SMILES,GTP binding activity (percent of control)
1,CCN(c1ccc(NC(=O)CN2C(=O)NC3(CCOc4ccccc43)C2=O)cc1)C(C)C (configuration not stated),inactive: 98%
2,O=C1C2C3C=CC(C3)C2C(=O)N1CNc1ccc(O)cc1 (configuration not stated),inconclusive: 88%
3,COc1cccc(/C=C/C(=O)Nc2ccccc2N2CCOCC2)c1,active: 23%
4,O=[N+]([O-])c1cccc(S(=O)(=O)N2CCCC2)c1,inconclusive: 121%
5,CCn1cc(C(=O)NCc2ccco2)c(=O)c2cc(S(=O)(=O)N3CCCCCC3)ccc21,inconclusive: 94%
6,Cc1cc(=O)[nH]c(SCC(=O)N2CCN(S(=O)(=O)c3ccccc3)C2)n1,inactive: 105%
7,Cc1ccc(OCC(=O)Nc2ccc(-c3nnc(-c4ccco4)o3)cc2)cc1,inconclusive: 110%
8,Cc1cc([N+](=O)[O-])nn1CC(=O)Nc1sc2c(c1C(N)=O)CCCC2,inconclusive: 93%
9,COCCn1c(SCC(=O)OC(C)C)nnc1-c1ccccc1,inconclusive: 102%
10,NS(=O)(=O)c1ccc(N2N=C(c3ccccc3)CC2c2cccc(F)c2)cc1 (configuration not stated),inactive: 102%
11,CC1(C)CC(=O)c2cnc(NCc3ccco3)nc2C1,inconclusive: 101%
12,COC(=O)c1ccc(CSc2nnc(Nc3ccc(C)cc3)s2)o1,inconclusive: 89%
13,COc1ccc(CCNC(=O)c2ccc(CNc3nc(=S)[nH]c4ccccc34)cc2)cc1OC,inactive: 105%
14,Cc1ccc(S(=O)(=O)N(CC(=O)Nc2ccccc2C(=O)O)c2ccccc2)cc1,inactive: 95%
15,Nc1cnn(Cc2ccccc2F)c1,inactive: 108%
16,Nc1c([N+](=O)[O-])c(=O)oc2ccccc12,inactive: 106%
17,Cc1nc2ncnn2c(C)c1Cc1cccc(C(F)(F)F)c1,inactive: 99%
18,COc1ccc(C)cc1NC(=O)C(NC(=O)c1cc(OC)c(OC)c(OC)c1)C(C)C (configuration not stated),inconclusive: 94%
19,COc1ccc(-n2c(C)nc3cc(C(=O)NCc4ccc5c(c4)OCO5)ccc32)cc1,inconclusive: 85%
20,O=C(Cc1ccccc1)Nc1nc2ccccc2[nH]1,inconclusive: 106%
21,Cc1ccc(C(=O)COC(=O)c2ccc3c(c2)C(=O)N(c2cccc4ncccc24)C3=O)cc1C,inconclusive: 87%
22,OC1(c2ccc3c(c2)OCO3)CCN(Cc2ccccn2)CC1,inconclusive: 102%
23,O=C(Cc1cccs1)N1CCN(S(=O)(=O)c2ccc(Br)cc2)CC1,inactive: 99%

# Structures above that contain fluorine, in the order listed:
row,SMILES,GTP binding activity (percent of control)
10,NS(=O)(=O)c1ccc(N2N=C(c3ccccc3)CC2c2cccc(F)c2)cc1 (configuration not stated),inactive: 102%
15,Nc1cnn(Cc2ccccc2F)c1,inactive: 108%
17,Cc1nc2ncnn2c(C)c1Cc1cccc(C(F)(F)F)c1,inactive: 99%

# Next structures follow:

row,SMILES,GTP binding activity (percent of control)
1,COc1ccccc1-c1ccc(SCc2cccc(F)c2)nn1,inconclusive: 93%
2,COc1cccc(C2CC(c3cccs3)=NN2C(=O)CSc2nc3ccccc3o2)c1OC (configuration not stated),inconclusive: 96%
3,Cc1nc2c(C(=O)NCc3ccccc3)c[nH]n2c(=O)c1Cl,inconclusive: 96%
4,Cc1ccc(Nc2nc(-c3c(C)nc4ncccn34)cs2)cc1,inconclusive: 82%
5,COC(=O)C1=C(C)OC(N)=C(C#N)C1c1c(C)nn(-c2ccccc2)c1Cl (configuration not stated),inactive: 99%
6,CC(=O)c1cnc2n(c1=O)CCS2,inactive: 103%
7,COc1ccc(C(=O)N2CCN(Cc3ccc4c(c3)OCO4)CC2)cc1[N+](=O)[O-],inactive: 97%
8,COc1cc2[nH]c3c(Cl)ncnc3c2cc1OC,inconclusive: 96%
9,NC(=O)C1CCN(CCC(=O)Nc2ccc3c(c2)CCC3)CC1,inconclusive: 96%
10,O=[N+]([O-])c1cc(S(=O)(=O)CCCN2CCOCC2)ccc1F,inactive: 95%
11,CCOC(=O)N1CCN(C(=O)c2nn(-c3cc(OC)cc(OC)c3)c(=O)c3ccccc23)CC1,inconclusive: 97%
12,CN(C)/C=N/c1c(C#N)cnn1-c1nc2ccccc2s1,inactive: 96%
13,CCc1ccccc1NC(=O)N[C@@H](C)C(=O)O,inconclusive: 104%
14,CN(CCCN1CCCCC1)C(=O)CCc1nnc(C2CCCCC2)o1,inactive: 103%
15,CCn1nc(C)c(/C=N/NC(=O)Cc2ccc(Cl)cc2)c1C,inconclusive: 99%
16,Cc1c(C(=O)N/N=C/c2ccc(-c3ccccc3[N+](=O)[O-])o2)sc(N)c1C#N,inconclusive: 76%
17,CCCS(=O)(=O)c1ccc(COC(=O)c2cccc(NC(=O)C(C)C)c2)cc1,inactive: 101%
18,O=C(N/C(=C/c1cccnc1)C(=O)N1CCOCC1)c1ccccc1,inconclusive: 99%
19,CN(C(=O)COC(=O)c1ccccc1SCC(=O)NC1CCCCCCC1)C1CCS(=O)(=O)C1 (configuration not stated),inconclusive: 98%
20,O=C(Cn1c(NCCO)nc2ccccc21)NCCc1ccccc1,inconclusive: 98%
21,O=C(CCCCCn1c(=S)[nH]c2ccc(N3CCOCC3)cc2c1=O)NCc1cccc(Cl)c1,inconclusive: 89%
22,C/C(CC(=O)Nc1cccc(Cl)c1Cl)=N\NC(=O)c1ccccc1N,inconclusive: 93%
23,N#Cc1cnc(SCC(=O)NNC(=O)COc2cccc3ccccc23)nc1N,inconclusive: 100%

# Three entries picked at random from the list so far, as already listed:
row,SMILES,GTP binding activity (percent of control)
19,CN(C(=O)COC(=O)c1ccccc1SCC(=O)NC1CCCCCCC1)C1CCS(=O)(=O)C1 (configuration not stated),inconclusive: 98%
20,O=C(Cn1c(NCCO)nc2ccccc21)NCCc1ccccc1,inconclusive: 98%
11,CC1(C)CC(=O)c2cnc(NCc3ccco3)nc2C1,inconclusive: 101%

# (continued)

row,SMILES,GTP binding activity (percent of control)
1,CCOc1ccc(NC(=O)COC(=O)c2cccnc2)cc1,inconclusive: 101%
2,Cc1ccc(CN(CC(=O)NC(C)(C)C)C(=O)CNC(=O)c2cccs2)cc1,inconclusive: 98%
3,C=CCNC(=S)N/N=C/c1ccc(C)cc1C,inconclusive: 93%
4,COc1cc(Cl)c(C)cc1NC(=O)c1ccc2c(SCC(=O)O)c3c(nc2c1)CCCC3,inconclusive: 91%
5,CCN(CC)S(=O)(=O)c1ccc2c(c1)nc(CCC(=O)Nc1cccc(C(F)(F)F)c1)n2CC,inconclusive: 102%
6,COc1ccccc1N1CCN(S(=O)(=O)c2cccc(F)c2)CC1,inconclusive: 473%
7,O=C1CC(c2ccccc2)CC(O)=C1C=NCc1ccco1 (configuration not stated),inconclusive: 102%
8,COCCN(CCOC)C(=O)c1ccc(SCc2ccc(C)cc2)c([N+](=O)[O-])c1,inactive: 98%
9,CCc1nnc(NC(=O)CSc2nnc(-c3cccnc3)n2C)s1,inactive: 104%
10,CC(Sc1nnc2ccccn12)C(=O)N1CCc2ccccc2C1 (configuration not stated),inconclusive: 97%
11,Cc1ccc(NS(=O)(=O)c2ccc(C3CCCCC3)cc2)cc1,inconclusive: 103%
12,CCO/N=C1\C(=O)N(c2ccccc2)c2ccccc21,inactive: 101%
13,Cc1no[n+]([O-])c1COc1cccc(/C=C2\N=C(c3ccccc3)OC2=O)c1,inconclusive: 137%
14,O=C(c1cncc(Br)c1)N1CCc2ccccc2C1,inactive: 98%
15,O=C(CSCc1ccccc1)Nc1ccc(F)c(F)c1,inactive: 97%
16,CCOc1cc(C2NC(=O)N(C)C(C)=C2[N+](=O)[O-])ccc1OC(C)=O (configuration not stated),inconclusive: 95%
17,CCOc1ccc(-n2c(SCC(=O)NC(C)CC)nc3n[nH]c(C)c3c2=N)cc1 (configuration not stated),inconclusive: 82%
18,O=S(=O)(Nc1cccc(-c2cn3c(n2)SCC3)c1)c1cccs1,inconclusive: 99%
19,Cc1cccc(C)c1NC(=O)CN(C)C(C)C(=O)Nc1ccccc1-c1ccccc1 (configuration not stated),inconclusive: 96%
20,CCCCc1cc(=O)oc2c(CN(C)C)c(O)c(Cl)cc12,inconclusive: 109%
21,Cn1c(=O)n(Cc2ccco2)c(=N)c2c3c(sc21)CCCC3,inconclusive: 93%
22,CCOc1cc(/C=C(\C#N)C(N)=O)ccc1OS(=O)(=O)c1ccccc1,inconclusive: 104%
23,COc1ccc(C(=O)Nc2cccc(C(C)=O)c2)cc1OC,inconclusive: 102%

row,SMILES,GTP binding activity (percent of control)
1,O=C(CN1CCN(c2ccccc2O)CC1)NC(=O)NCc1ccco1,inconclusive: 100%
2,O=S(=O)(NCCOCC(F)(F)C(F)F)c1ccc2oc3ccccc3c2c1,inactive: 98%
3,Cc1ccc2nsnc2c1NC(=O)c1ccccc1[N+](=O)[O-],inconclusive: 106%
4,Cc1ccnc(NS(=O)(=O)c2ccc(CC(C)C)cc2)c1,inconclusive: 101%
5,CN(C)c1nc(N)nc(Cn2nnc(-c3ccc(C(F)(F)F)cc3)n2)n1,inactive: 104%
6,CCOC(=O)N1CCC(NC(=O)CCc2c(C)nc3nc(C)nn3c2C)CC1,inconclusive: 103%
7,Cc1cccc(C)c1OC(=O)C(c1ccccc1)c1ccccc1,inactive: 102%
8,CCOC(=O)c1cnc2c(Cl)cccc2c1NCCN(C)C,inconclusive: 100%
9,CC(=O)C(Cc1cccc(F)c1)(Cc1cccc(F)c1)C(C)=O,inconclusive: 106%
10,COCCSc1nnc(NC(=O)CSCc2ccccc2)s1,inconclusive: 101%
11,Cc1ccc(C2NC(=O)NC3=C2CCc2ccccc23)cc1 (configuration not stated),inconclusive: 92%
12,COc1ccc(N2C(=O)CC(Cc3ccccc3)C2=O)cc1 (configuration not stated),inconclusive: 104%
13,O=C(CCS(=O)(=O)c1cccc2nonc12)N1CCCc2ccccc21,inactive: 99%
14,CCOC(=O)C1CCN(C(=O)CCNC(=O)Cn2ccc3ccccc3c2=O)CC1,inconclusive: 105%
15,CCc1nc(N2CCCCC2C)c2oc3ccccc3c2n1 (configuration not stated),inconclusive: 90%
16,CCOc1ccc(N2C(=O)c3ccc(C(=O)OCC(=O)N(CC)C4CCS(=O)(=O)C4)cc3C2=O)cc1 (configuration not stated),inconclusive: 96%
17,Cc1ccc(NC(=S)N=Nc2c(O)[nH]c3ccccc23)cc1,inactive: 87%
18,COC(=O)c1cc(NCc2ccccc2F)ccc1N1CCOCC1,inconclusive: 95%
19,O=C(COCC(=O)NCc1ccccc1)NCc1ccccc1,inconclusive: 94%
20,CC(C)C(=O)Nc1ccc(C(=O)NNC(=O)C(c2ccccc2)c2ccccc2)cc1,inconclusive: 102%
21,CC1S/C(=N/N=C/c2cccs2)NC1=O (configuration not stated),inconclusive: 94%
22,O=C(c1nn2c(C(F)(F)F)cc(-c3ccc(F)cc3)nc2c1Cl)N1CCOCC1,inconclusive: 190%
23,COC(=O)C1=CN(C2CC2)C=C(C(=O)OC)C1c1ccccc1OC,inconclusive: 92%
